In the test the target is CD16A抗原 (UniProt P08637). Description: flow cytometry on CD16A-positive NK cells, 10 nM bispecific antibody, biotin goat anti-human IgG F(ab')2-specific antibody and PE-streptavidin.

By UniProt entry, the sequences of proteins in these tests, tags left out. Residues count along the entry.
UniProt P08637, residues 17-254: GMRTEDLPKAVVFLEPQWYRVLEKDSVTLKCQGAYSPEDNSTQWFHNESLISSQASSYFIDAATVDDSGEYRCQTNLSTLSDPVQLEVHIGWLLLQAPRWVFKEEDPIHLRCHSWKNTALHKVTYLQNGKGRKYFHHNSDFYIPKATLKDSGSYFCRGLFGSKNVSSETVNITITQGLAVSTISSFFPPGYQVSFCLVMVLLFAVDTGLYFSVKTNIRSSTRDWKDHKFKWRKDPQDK

No constants are given. Whether binding was seen depends on the method and setting. Some binding calls cover weakened binding; strength is not graded here.

B1: 抗CD16A抗原和抗MUC1抗原的双特异性抗体 (bispecific antibody, not shown: a dimerising Fc or GST)
chain: DTVLTQSPASLAVSLGQRATISCKASQSVDFDGHSFMNWYQQKPGQPPKLLIYTTSNLESGIPASFSASGSGTDFTLNIHPVEEEDTATYYCQQSNEDPYTFGGGTKLEIKGGGGSQMQLVQSGAEVKKPGASVKVSCKASGYTFTGHYMHWVRQAPGQGLEWMGWIDPVTGGTKYAQNFQGWVTMTRDTSIRTAYMELSRLRSDDTAMYYCAREVTGDRGQFDKWGQGTLVTVASGGGGSGGGGSCPPCPGGGGSQSVLTQPPSVSVAPGKTARITCGGNNIGSKSVHWYQQKPGQAPVLVIYYDSDRPSGIPERFSGSNSGNTATLTISRVEAGDEADYYCQVWDSSSDWVFGGGTKLTVLGGGGSQVTLRESGPALVKPTQTLTLTCTFSGFSLSTSGMGVGWIRQPPGKALEWLAHIWWDDDKRYNPALKSRLTISKDTSKNQVVLTMTNMDPVDTATYYCARINPAWFAYWGQGTLVTVSS
For B1, the binding entry was “binds”.

(Values after patent publication CN105367660A.)
